# Library screening results

The filed quantity is “Percent Effect” (%).
The record does not define 0% and 100%; most values in the screen are far below 50% and negative numbers occur (in some assays of this library far below -100).
This is an unselected part of the compounds tested.
Two or more numbers in one place are separate tests of the same structure; such repeats can differ widely.

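Viability assay of Plasmodium falciparum sporozoites; the read-out is not stated. The concentration is filed as 10 mM, unlikely as a test dose, so the dose is not known. Direction is inferred from retests: higher values go with lower viability. Strong results were mostly tested again. About 34,000 compounds were tested under these conditions; 0.84% (about 280) showed 50% or more at least once.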

| # | structure | effect |
|---|---|---|
| 1 | `O=C(O)C(F)(F)F.[H][C@@]12CN(CC)C[C@]1([H])[C@@H](OC)CCN2C(=O)Cc1ccsc1` | 1.489 |
| 2 | `Cc1n[nH]c(C)c1-c1nccnc1CC1CCN(C(C)C)CC1` | 17.99 |
| 3 | `Cc1cc(N2CCCC2c2cccnc2)nc(C)n1` (centres undefined) | -9.346 and -7.735 |
| 4 | `O=C(CN1CCC(C(=O)c2cc(F)ccc2F)CC1)NC1CCCC1` | 1.917 |
| 5 | `Cn1ccc(C(=O)N2CCc3[nH]nc(Nc4ccccc4)c3C2)n1` | 6.46 |
| 6 | `Cc1cc(NC(=O)c2ccc(CN3CC[C@H](O)C3)cc2)ccc1F` | 96.75 and 98.24 |
| 7 | `Cc1ccc(CCCC(=O)N(C)CCN2CCOCC2)cc1` | 4.366 |
| 8 | `CN1CCCC(CNC(=O)N2CCN(Cc3ccon3)CC2)C1` (centres undefined) | -12.02 |
| 9 | `[H][C@@]12CN(C(C)=O)C[C@]1(C(=O)NC)CCC21CCN(S(=O)(=O)C2CC2)CC1` | 18.68 |
| 10 | `Cc1ncsc1C(=O)N(Cc1cccs1)C1CC1` | 3.224 |
| 11 | `Fc1ccc(C2CCCCN2Cc2cc(-c3ccccn3)no2)cc1` (centres undefined) | -13.58 |
| 12 | `COCCN1CCN(CC(=O)N(C)Cc2cccc(F)c2)CC1C` (centres undefined) | -4.973 |
| 13 | `O=C(CCNc1ncccn1)N1CCCC(n2cccn2)C1` (centres undefined) | 0.7402 |
| 14 | `[H][C@@]12OCCC[C@]1([H])N(C(C)=O)C[C@@H]2NC(=O)c1cscn1` | -3.2 |
| 15 | `Cc1cn2c(n1)C(CNCc1cccc3c1OCO3)CCC2` (centres undefined) | 10.56 |
| 16 | `Cc1nc(C(=O)N2CCOC(Cc3ccc(F)cc3)C2)co1` (centres undefined) | -2.877 |
| 17 | `Cc1cccc(CNC(Cc2ccsc2)c2nc(C)c(C)s2)n1.Cl` (centres undefined) | -1.561 |
| 18 | `CN(C)Cc1nc(C(C)(C)NC(=O)C2CC(=O)N(CC3CC3)C2)no1` (centres undefined) | 8.104 |
| 19 | `CC1=Nc2c(c(=O)[nH]n2C2CCCC2)C(c2cccc(O)c2)S1` (centres undefined) | 0.6579 |
| 20 | `O=S(=O)(c1ccccc1)N1CC[C@]2(C[C@@H](OCC3CC3)CO2)C1` | -7.967 |
| 21 | `CCN1C(=O)CCC12CCN(C(=O)c1ccco1)CC2` | 12.17 |
| 22 | `CCOc1ncccc1NC(=O)N1CCC(CN2CCOCC2)CC1` | 12.06 |
| 23 | `CCC1CN(C(=O)c2ccc(=O)[nH]c2)CCC(=O)N1Cc1ccccc1` (centres undefined) | -2.688 |
| 24 | `Cn1cc(C2COC3(CCN(C(=O)c4cccn4C)CC3)C2)cn1` (centres undefined) | -3.694 |
| 25 | `Cc1nc(NC2CCCC2)cc(C2CCN2C(=O)c2ccccc2)n1` (centres undefined) | -8.886 |
| 26 | `Cc1nccn1-c1cccc(C2CCCN(C3CCCC3)C2)n1` (centres undefined) | 2.343 |
| 27 | `O=C(O)C(F)(F)F.[H][C@@]12COC[C@H](NS(C)(=O)=O)[C@]1([H])CN(Cc1ccc(C)s1)C2` | 15.18 |
| 28 | `[H][C@]12CCN(C(=O)c3ccccn3)CC[C@@]1([H])S(=O)(=O)N(CC(C)C)C2` | -3.24 |
| 29 | `[H][C@]12CC[C@@]3(N=C(C)N(CCOC)C3=O)[C@@]1([H])CN(C(=O)NC1CCCC1)C2` | -0.7576 |
| 30 | `Cc1ccc(C(=O)N2CCN(CC(O)c3ccc(F)cc3)CC2)s1` (centres undefined) | -0.3298 |
| 31 | `CN(Cc1c(F)cccc1Cl)C(=O)CN(C)C1CCc2ccccc21` (centres undefined) | -5.228 |
| 32 | `O=C(CN(Cc1cccnc1)CC1CCCO1)Nc1ccc(F)cc1` (centres undefined) | -3.424 |
| 33 | `CCN1N=C(C(=O)N2CCCC(c3nc(C)c(C)s3)C2)CCC1=O` (centres undefined) | -2.602 |
| 34 | `CN1CC[C@]2(CN(CC3CC3)C[C@H]2c2ccccc2)C1=O` | 5.908 |
| 35 | `CSc1nccn1-c1cccc(C(=O)NCC2CC2)c1` | 0.0815 |
| 36 | `Cc1n[nH]c(C)c1CCC(=O)N1CCC(O)(CN2CCOCC2)C1` (centres undefined) | -9.397 |
| 37 | `Cc1csc(N2CCN(CC(=O)N3CCNC3=O)CC2C)n1` (centres undefined) | -8.49 |
| 38 | `CCN(CC1CCOC1)C(=O)CCc1nc(C(C)(C)C)no1` (centres undefined) | -15.65 |
| 39 | `COCC(c1cccc(C(F)(F)F)c1)N(C)C(=O)c1cnccn1` (centres undefined) | -0.3641 |
| 40 | `CN(CCCN1CCCC1)[C@@H]1c2ccccc2C2(CCNCC2)[C@H]1O` | -2.662 |
| 41 | `Cc1nn(C)c(N(C)C)c1CNCCC(=O)NC1CCCC1` | -2.521 |
| 42 | `CC(C)(C)n1cc(NCc2cscn2)cn1` | 16.3 |
| 43 | `[H][C@@]12CN(CC(C)C)C[C@]1([H])C(=O)NC21CCN(C(=O)c2cccnc2)CC1` | 27.2 |
| 44 | `CC(C)(C)c1cnc(CN2CCC(c3ccnn3CCO)CC2)o1` | 15.05 |
| 45 | `CCC(C)[C@H](N)c1nnc(SCC(=O)Nc2ccc(C)cc2C)o1.Cl` (some centres undefined) | -3.361 |
| 46 | `COc1ncccc1C(=O)N1CCC(c2nnc(C3CC3)o2)CC1` | -20 |
| 47 | `Cc1noc(CN(Cc2cccc(C#N)c2)Cc2cccs2)n1` | 12.7 and 11.7 |
| 48 | `Cc1cc(CN2CCC(O)(Cn3ccc4ncccc43)CC2)c(C)s1` | -0.3271 |
| 49 | `CS(=O)(=O)NC(=O)c1nnn(-c2cccc(F)c2)c1C1CC1` | 1.14 |
| 50 | `Cc1ccc(CN2CCC3(CC2)C(=O)N(CC(C)C)CCN3C)o1.O=C(O)C(F)(F)F.O=C(O)C(F)(F)F` | -0.8554 |
| 51 | `CC(C)(C)c1cc(C(=O)NCCN2CCCS2(=O)=O)[nH]n1` | 9.272 |
| 52 | `O=C(NCCOCCO)c1cnc(-c2ccccc2)nc1O` | -5.843 |
| 53 | `Cc1cnc2n(c1=O)CC(C(=O)Nc1cccc3cccnc13)CS2` (centres undefined) | -3.66 |
| 54 | `CCCC1CN(CC(C)C)C(=O)c2cccnc2O1` (centres undefined) | -32.97 |
| 55 | `COCCN1CCC2(CCCN(C(=O)c3cnoc3C)C2)C1=O` (centres undefined) | 0.2806 |
| 56 | `CN(C)CC1CN(Cc2nnc(C(C)(C)C)o2)CCO1` (centres undefined) | 18.73 |
| 57 | `O=C(O)C(F)(F)F.[H][C@@]12CCN(c3ccc(C)nn3)C[C@]1([H])CN(C(=O)c1ccn(C)n1)C2` | 10.65 |
| 58 | `O=S(=O)(Cc1ccon1)N1CCN(c2ccncc2Cl)CC1` | -18.64 |
| 59 | `CCOCCC(=O)N1CCCC(c2ncc[nH]2)C1` (centres undefined) | 7.202 |
| 60 | `CC(C)(C)c1cc(NC(=O)CN2CCc3cncnc3C2)on1` | 15.92 |
| 61 | `COc1cc(C)nc(N2CCN(C(C)c3nc(C4CC4)no3)CC2)n1` (centres undefined) | -20.84 and -33.61 |
| 62 | `Cc1ccccc1C(C(=O)N(C)Cc1cnn(C)c1)N(C)C` (centres undefined) | -17.85 |
| 63 | `CN1C(=O)CC(c2cnn(C)c2)C12CCN(C(=O)c1ccno1)CC2` (centres undefined) | -1.784 |
| 64 | `Cc1nc(C)n(CC2CCCN2Cc2nc(N)c3ccccc3n2)n1` (centres undefined) | 43.62 and 45.53 and 37.99 |
| 65 | `CNC(=O)CC1CCN(C(=O)NCC2(c3ccccc3F)CC2)CC1` | -5.257 |
| 66 | `O=C(O)C(F)(F)F.O=C(O)C(F)(F)F.c1cnc(N2CCC3(CCN(CC4CCOC4)CC3)CC2)nc1` (centres undefined) | -15.22 |
| 67 | `O=C1NCCN1C1CCN(c2ccnc(-c3ccccc3)n2)CC1` | -41.46 and 16.8 and -43.88 |
| 68 | `O=C(O)C(F)(F)F.O=C1CCC2(CCCN(CCc3ccccc3)C2)N1Cc1cccnc1` (centres undefined) | -6.989 |
| 69 | `Cc1cc(C)c(CNC(=O)NCC2Cc3ccccc3O2)c(=O)[nH]1` (centres undefined) | -5.085 |
| 70 | `Cl.O=C(CCn1c(C(F)(F)F)cc2cccnc21)N1CCCC1` | -4.276 |
| 71 | `O=C(O)C(F)(F)F.[H][C@@]12COC[C@]1(c1nc(C)no1)CN(C(=O)CN(C)C)C2` | -25.97 and -31.08 and -1.751 |
| 72 | `CC(Cn1cncn1)NC(=O)Nc1ccc(COC2CCCC2)cc1` (centres undefined) | -18.51 |
| 73 | `CNS(=O)(=O)c1cccc(C(C)NCc2cccc(C)c2C)c1` (centres undefined) | -2.086 |
| 74 | `COc1cccc(COCC(=O)N2CCCCCC2)c1` | 9.897 |
| 75 | `Cc1ccc(N2CCc3c(CN(C)Cc4ccco4)cncc3C2)nn1.Cl.Cl` | 6.914 |
| 76 | `Cl.NC(=O)COc1ccc(CNCc2ccc(F)c(F)c2)cc1` | -9.183 |
| 77 | `Cc1cnc(N)c(C(=O)C2CCN(C(=O)C3CCC3)CC2)c1` | 7.186 |
| 78 | `Cc1nc(CCC(=O)N2Cc3cnc(-c4ccccc4)nc3C2)n[nH]1` | -5.876 |
| 79 | `O=C(O)C(F)(F)F.O=C(O)C(F)(F)F.[H][C@@]12OCCN(Cc3csc(C)n3)[C@@]1([H])CC[C@@H]2OCc1ccccn1` | -18.01 |
| 80 | `CCc1nsc(NC2CCCn3nc(CC)nc32)n1` (centres undefined) | -3.863 |
| 81 | `Cn1cc(CN2CCCn3cnc(CN4CCCC4=O)c3C2)cn1` | -1.407 |
| 82 | `CC(C)CCc1noc(CN2CCCN(C(=O)c3ccco3)CC2)n1` | -13 |
| 83 | `COCCN1CCc2ncnc(NC(C)C)c2CC1.O=C(O)C(F)(F)F` | -13.84 |
| 84 | `COc1cccc(CNC2CCCOc3cc(C)ccc32)n1` (centres undefined) | -10.87 |

Once more, the final 5:

structure	effect
CCc1nsc(NC2CCCn3nc(CC)nc32)n1 (centres undefined)	-3.863
Cn1cc(CN2CCCn3cnc(CN4CCCC4=O)c3C2)cn1	-1.407
CC(C)CCc1noc(CN2CCCN(C(=O)c3ccco3)CC2)n1	-13
COCCN1CCc2ncnc(NC(C)C)c2CC1.O=C(O)C(F)(F)F	-13.84
COc1cccc(CNC2CCCOc3cc(C)ccc32)n1 (centres undefined)	-10.87

Source: ChEMBL document CHEMBL3988442, “University of Dundee, Small-Polar-MMV Screening Library” (2021).